# Assay results reported in the supplement of paper PMC7666118.
# Chains of the proteins cited; added tags and fusions are not shown. Lines headed by an entry give the natural chain unless they say otherwise; changes in a name come on top.
# UniProt Q9NQG5: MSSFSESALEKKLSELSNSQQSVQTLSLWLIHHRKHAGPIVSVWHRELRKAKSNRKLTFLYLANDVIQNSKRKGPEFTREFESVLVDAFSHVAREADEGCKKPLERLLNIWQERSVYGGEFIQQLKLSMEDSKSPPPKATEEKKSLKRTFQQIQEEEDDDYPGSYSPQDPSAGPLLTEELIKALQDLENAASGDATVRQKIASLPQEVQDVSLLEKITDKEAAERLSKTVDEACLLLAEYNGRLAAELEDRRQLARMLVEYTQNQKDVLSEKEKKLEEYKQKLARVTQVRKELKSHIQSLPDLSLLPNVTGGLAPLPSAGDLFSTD
# UniProt Q9UKL0, whole entry: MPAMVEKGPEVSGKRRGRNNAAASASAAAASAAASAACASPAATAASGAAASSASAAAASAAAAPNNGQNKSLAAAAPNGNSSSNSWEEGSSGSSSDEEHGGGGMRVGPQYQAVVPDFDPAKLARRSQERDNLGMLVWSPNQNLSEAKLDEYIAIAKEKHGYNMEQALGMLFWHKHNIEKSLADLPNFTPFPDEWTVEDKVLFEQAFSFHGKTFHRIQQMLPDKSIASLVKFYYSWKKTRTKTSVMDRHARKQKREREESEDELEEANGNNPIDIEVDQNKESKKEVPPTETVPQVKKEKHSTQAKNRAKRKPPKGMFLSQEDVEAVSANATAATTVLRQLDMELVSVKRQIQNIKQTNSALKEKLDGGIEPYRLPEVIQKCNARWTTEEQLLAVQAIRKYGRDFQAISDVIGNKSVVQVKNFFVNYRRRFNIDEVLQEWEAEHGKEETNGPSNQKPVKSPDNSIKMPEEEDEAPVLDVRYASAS
# UniProt Q5W0B1: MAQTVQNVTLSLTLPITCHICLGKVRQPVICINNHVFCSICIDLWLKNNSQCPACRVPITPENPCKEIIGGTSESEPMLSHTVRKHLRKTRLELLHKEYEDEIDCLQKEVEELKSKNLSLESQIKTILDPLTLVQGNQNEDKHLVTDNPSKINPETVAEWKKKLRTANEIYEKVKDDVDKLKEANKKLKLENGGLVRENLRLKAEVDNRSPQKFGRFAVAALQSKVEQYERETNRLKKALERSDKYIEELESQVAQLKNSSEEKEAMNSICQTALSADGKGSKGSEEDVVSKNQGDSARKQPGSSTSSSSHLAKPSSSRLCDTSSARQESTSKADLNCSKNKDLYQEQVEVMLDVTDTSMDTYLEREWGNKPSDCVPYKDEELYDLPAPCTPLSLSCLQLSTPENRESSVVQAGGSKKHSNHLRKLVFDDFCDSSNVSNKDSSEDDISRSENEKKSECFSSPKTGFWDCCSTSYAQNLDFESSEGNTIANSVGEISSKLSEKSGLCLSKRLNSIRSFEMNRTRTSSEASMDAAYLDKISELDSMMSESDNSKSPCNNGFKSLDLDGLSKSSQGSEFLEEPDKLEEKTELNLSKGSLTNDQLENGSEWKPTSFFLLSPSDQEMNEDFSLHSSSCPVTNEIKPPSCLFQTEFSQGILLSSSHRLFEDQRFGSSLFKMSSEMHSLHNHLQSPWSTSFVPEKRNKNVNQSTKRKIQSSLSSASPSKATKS
# UniProt Q15293: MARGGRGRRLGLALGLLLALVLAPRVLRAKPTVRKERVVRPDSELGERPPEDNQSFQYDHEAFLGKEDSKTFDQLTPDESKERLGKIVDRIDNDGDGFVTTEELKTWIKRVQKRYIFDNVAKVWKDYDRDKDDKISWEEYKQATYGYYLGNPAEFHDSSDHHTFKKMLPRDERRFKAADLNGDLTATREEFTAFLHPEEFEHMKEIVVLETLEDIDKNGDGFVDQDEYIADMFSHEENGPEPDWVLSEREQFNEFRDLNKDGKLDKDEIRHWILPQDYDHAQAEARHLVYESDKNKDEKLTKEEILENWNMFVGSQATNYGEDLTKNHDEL
# UniProt Q8IXI2: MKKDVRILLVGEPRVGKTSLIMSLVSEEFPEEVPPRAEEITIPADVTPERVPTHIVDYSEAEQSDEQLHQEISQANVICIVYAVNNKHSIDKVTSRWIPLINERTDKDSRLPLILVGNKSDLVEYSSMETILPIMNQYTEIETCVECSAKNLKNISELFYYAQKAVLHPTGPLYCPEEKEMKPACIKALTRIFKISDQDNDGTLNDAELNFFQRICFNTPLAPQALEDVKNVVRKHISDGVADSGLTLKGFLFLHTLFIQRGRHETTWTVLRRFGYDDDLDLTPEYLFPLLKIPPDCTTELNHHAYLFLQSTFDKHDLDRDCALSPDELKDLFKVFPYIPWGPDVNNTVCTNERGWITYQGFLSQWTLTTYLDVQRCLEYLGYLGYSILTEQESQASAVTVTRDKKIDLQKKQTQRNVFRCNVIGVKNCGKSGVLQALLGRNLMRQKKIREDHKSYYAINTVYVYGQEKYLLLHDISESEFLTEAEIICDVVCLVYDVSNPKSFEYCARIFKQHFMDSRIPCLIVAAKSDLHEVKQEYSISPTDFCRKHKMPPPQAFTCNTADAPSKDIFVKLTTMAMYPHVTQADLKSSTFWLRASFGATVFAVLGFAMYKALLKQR
# UniProt Q96BH1: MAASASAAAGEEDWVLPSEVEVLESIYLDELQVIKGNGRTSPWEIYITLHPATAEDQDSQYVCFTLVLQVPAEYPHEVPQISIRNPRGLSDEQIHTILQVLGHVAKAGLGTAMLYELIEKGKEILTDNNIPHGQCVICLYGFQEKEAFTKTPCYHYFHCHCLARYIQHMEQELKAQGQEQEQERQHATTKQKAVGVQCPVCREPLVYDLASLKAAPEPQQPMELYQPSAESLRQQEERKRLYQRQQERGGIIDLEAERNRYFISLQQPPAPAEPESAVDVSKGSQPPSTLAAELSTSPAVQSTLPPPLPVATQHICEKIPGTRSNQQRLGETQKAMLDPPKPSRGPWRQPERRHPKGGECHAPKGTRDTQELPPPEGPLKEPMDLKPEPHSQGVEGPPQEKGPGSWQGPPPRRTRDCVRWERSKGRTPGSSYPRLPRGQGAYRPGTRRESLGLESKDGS
# UniProt P35250, whole entry: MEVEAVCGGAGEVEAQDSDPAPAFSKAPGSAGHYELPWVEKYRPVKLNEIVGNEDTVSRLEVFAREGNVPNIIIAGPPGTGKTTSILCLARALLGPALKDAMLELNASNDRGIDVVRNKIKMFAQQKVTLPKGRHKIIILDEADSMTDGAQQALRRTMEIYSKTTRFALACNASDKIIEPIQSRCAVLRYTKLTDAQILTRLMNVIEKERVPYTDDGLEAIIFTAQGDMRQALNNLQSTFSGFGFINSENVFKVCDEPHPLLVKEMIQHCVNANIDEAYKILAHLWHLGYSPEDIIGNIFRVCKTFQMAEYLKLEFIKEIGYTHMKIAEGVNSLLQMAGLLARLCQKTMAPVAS
# UniProt Q5JTH9: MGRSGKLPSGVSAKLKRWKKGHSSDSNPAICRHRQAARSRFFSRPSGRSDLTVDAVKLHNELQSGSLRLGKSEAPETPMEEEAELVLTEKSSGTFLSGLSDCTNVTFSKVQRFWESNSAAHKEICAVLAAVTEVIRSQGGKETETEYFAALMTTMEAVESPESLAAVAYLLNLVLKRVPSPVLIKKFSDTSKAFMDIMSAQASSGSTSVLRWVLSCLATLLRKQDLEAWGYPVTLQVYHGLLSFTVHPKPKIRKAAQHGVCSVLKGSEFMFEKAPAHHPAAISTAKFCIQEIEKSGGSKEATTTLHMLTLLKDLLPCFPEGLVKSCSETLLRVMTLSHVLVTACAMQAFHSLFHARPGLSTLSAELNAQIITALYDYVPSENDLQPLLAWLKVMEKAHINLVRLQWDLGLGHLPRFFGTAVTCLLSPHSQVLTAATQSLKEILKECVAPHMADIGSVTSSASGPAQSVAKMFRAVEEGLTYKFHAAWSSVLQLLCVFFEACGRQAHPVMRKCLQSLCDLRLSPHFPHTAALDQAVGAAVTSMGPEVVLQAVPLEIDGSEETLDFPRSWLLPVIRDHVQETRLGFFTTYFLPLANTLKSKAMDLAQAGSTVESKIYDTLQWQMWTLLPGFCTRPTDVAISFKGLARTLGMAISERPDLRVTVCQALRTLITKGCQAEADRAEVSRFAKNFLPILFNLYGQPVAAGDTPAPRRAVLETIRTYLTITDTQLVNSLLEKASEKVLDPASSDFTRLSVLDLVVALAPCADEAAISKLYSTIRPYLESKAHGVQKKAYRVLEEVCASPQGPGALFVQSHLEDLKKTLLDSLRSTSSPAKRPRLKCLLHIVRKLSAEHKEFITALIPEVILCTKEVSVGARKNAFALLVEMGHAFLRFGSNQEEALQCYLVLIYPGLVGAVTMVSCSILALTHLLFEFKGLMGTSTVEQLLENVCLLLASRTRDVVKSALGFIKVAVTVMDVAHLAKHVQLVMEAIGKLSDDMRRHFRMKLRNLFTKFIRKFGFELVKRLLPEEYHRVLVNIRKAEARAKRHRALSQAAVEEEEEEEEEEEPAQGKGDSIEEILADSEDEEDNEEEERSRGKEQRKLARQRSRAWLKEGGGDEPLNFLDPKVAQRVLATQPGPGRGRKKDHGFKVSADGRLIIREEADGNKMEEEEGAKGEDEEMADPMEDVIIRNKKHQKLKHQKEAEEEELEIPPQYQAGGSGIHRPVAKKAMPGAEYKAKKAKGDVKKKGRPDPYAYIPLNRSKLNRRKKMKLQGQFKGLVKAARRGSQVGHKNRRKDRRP
# The list shows a part of the results.
# Compound: COc1ccc(Cn2ccc3ccc(C(=O)NO)cc32)cc1
# Test: dose-dependent thermal stabilisation call (2D-TPP, DLPTP, 10% FDR) (binary (1 = stabilised)); higher = stabilised by the compound
# Details: system: HL-60 intact cells; concentration range 0.04-10 µM
row,Target,dose-dependent thermal stabilisation call
1,RPRD1B (UniProt Q9NQG5),inactive: 0
2,RCOR1 (UniProt Q9UKL0),inactive: 0
3,RPL35 (UniProt P42766),inactive: 0
4,RNF219 (UniProt Q5W0B1),inactive: 0
5,RCN1 (UniProt Q15293),inactive: 0
6,RPL22 (UniProt P35268),inactive: 0
7,RHOT1 (UniProt Q8IXI2),inactive: 0
8,RPS10 (UniProt P46783),inactive: 0
9,RNF25 (UniProt Q96BH1),inactive: 0
10,RFC2 (UniProt P35250),inactive: 0
11,RRP12 (UniProt Q5JTH9),inactive: 0

# Part of the list above, as tab-separated lines:
row	Target	dose-dependent thermal stabilisation call
1	RPRD1B (UniProt Q9NQG5)	inactive: 0
4	RNF219 (UniProt Q5W0B1)	inactive: 0
8	RPS10 (UniProt P46783)	inactive: 0
